# According to article PMC12040169 (PLOS Biology, 2025):
# Read-outs that look alike come from different tables or passages of the source. The list shows a part of the results.
# System: T1, CTL2-GFP (C. trachomatis L2/434/Bu, GFP-expressing)
# T1 construct: L2/434/Bu, GFP-expressing
# Set-up: species or system HeLa; Intracellular C. trachomatis growth in HeLa cells, bulk GFP fluorescence relative to DMSO
# Conditions: bulk GFP, single well, 28.5 h, 10 µM, inhibitor
Structure (SMILES),% of control remaining,% of control remaining (Bulk GFP fluorescence)
Cc1ccccc1NC(=O)NCCCN1CCN(C)CC1 [CBK267837],129.314%,–
Cc1nc(CCNC(=O)c2nn(-c3cccc(C(C)C)c3)cc2O)cs1 [CBK305438],125.96%,–
COc1ccc(S(=O)(=O)N2CCN(C(=O)c3cc(-c4cccnc4)nc4c(C)cc(C)cc34)CC2)cc1OC [CBK267767],85.9313%,–
CCOC(=O)CCNC(=O)C1(c2ccccc2)CCCC1 [CBK149543],127%,–
COc1ccc2c(c1)c(C(=O)NCCn1nc(C)cc1C)c(C)n2C [CBK304615],97.123%,–
O=C(O)c1ccc(CNCc2c(F)cccc2Cl)cc1 [CBK269496],–,125.5%
CSCCN1CCC(Oc2cncc(OCC3COc4ccccc4O3)n2)C1 (centres unmarked) [CBK084381],101.064%,–
CCc1ccc(NC(=N)Nc2nc(CSc3ncccn3)cc(=O)[nH]2)cc1 [CBK268836],141.699%,–
Cc1ccc(C(C)C)c(OCc2ccc(C(=O)O)o2)c1 [CBK078089],103.613%,–
CN1CCN(C(=O)CCCN2C(=O)c3cccc4cccc(c34)C2=O)CC1 [CBK262383],100%,–
CC1(C)CC(=O)C(C(=S)Nc2ccccc2)=C(O)C1 [CBK288395],146.007%,–
O=C(O)Cc1ccc(NC(=S)Nc2ccc([N+](=O)[O-])cc2)cc1 [CBK266959],166.113%,–
CN(Cc1ccccc1)C1CCN(Cc2ccccn2)CC1 [CBK264622G],100%,–
O=S(=O)(c1ccc(Cl)c(Cl)c1)c1ccc2nccc(N3CCNCC3)c2c1 [CBK036497C],112.021%,–
CC1CCN(Cc2c(O)ccc3occ(C(=O)c4ccccc4)c23)CC1 [CBK111319],121.517%,–
CN1CCC(N2CC[C@H](c3nnc(-c4cncn4C)o3)C2)CC1 [CBK289403],113.152%,–
CCOC(=O)c1c(C)oc2ccc(O)c(CN3CCCCC3)c12 [CBK263838C],100%,–
CN1CCN(Cc2c(C3CCCC3)[nH]c3ncccc23)CC1 [CBK285336],118.938%,–
CC(C)(N)CN(Cc1ccc(Cl)cc1)C(=O)Nc1ccccc1-c1ccccc1 [CBK004924],113.061%,–
Cc1nc2c(c(=O)[nH]1)CN(Cc1cc(F)ccc1F)CC2 [CBK283953],115.556%,–
Nc1ncnc(NCCc2ccccc2)n1 [CBK262701],132.597%,–
NC1CC(c2cc(NCCCc3nnc4ccccn34)ncn2)C1 (centres unmarked) [CBK307120],89.3497%,–
CCc1nnc(CN2CCCC(c3cc(C(N)=O)[nH]n3)C2)o1 (centres unmarked) [CBK305213],101.887%,–
FC(F)(F)Oc1ccc(-c2cncc(N3CCN(c4ccncc4)CC3)n2)cc1 [CBK059230C],110.768%,–
C(=C\c1cccc(Nc2ccc(Oc3ccccc3)cc2)n1)/c1ccccc1 [CBK037614],111.927%,–
CCCn1ncnc1C(C)NC(=O)Nc1ccnn1CC(C)C (centres unmarked) [CBK307545],92.5687%,–
c1ccc(Oc2ccccc2-c2cc(NCCc3c[nH]cn3)ncn2)cc1 [CBK037845],99.7322%,–

Structure (SMILES),% of control remaining,% of control remaining (Bulk GFP fluorescence)
O=C(NC(c1ccc(Cl)cc1)c1cnccn1)C1CCN(C(=O)N2CCOCC2)CC1 (centres unmarked) [CBK059635],165.321%,–
CC(=O)N[C@H]1CC[C@]2(C)CCC([C@H](C)C(=O)N(C)Cc3ccccc3)[C@H](O)[C@H]2[C@@H]1C (some centres unmarked) [CBK289435],104.987%,–
O=C(Nc1ccccc1C(F)(F)F)NC1CC2CCCC(C1)N2C1CC1 (centres unmarked) [CBK143578],131.508%,–
CCn1c2ccccc2c2cc(NC(=O)CC(C)CC(=O)O)ccc21 (centres unmarked) [CBK300031],121.002%,–
CC(C)Cn1cnc2c(c1=N)C(c1ccccc1)c1ccc(O)cc1O2 (centres unmarked) [CBK287864],124.719%,–
Cc1cc(NC(=O)c2cccc(C#N)c2)c2ccccc2n1 [CBK116267],134.506%,–
COCCCNC(=O)Cn1cnc2sc(C)cc2c1=O [CBK071899],107.477%,–
O=C(c1cc[nH]c1)N1CCN(C(=O)c2ccco2)CC1 [CBK144467],108.626%,–
CCN1C(=O)COC[C@@H]1[C@H](O)c1ccc(NC(=O)C2CCC2)cc1 [CBK289686],141.821%,–
N#Cc1ccc(Cn2cnc(NC(=O)c3cnccn3)n2)cc1 [CBK305233],111.541%,–
CC(C)(C)c1ccc(NC(=O)n2ccc3c(N4CCNCC4)cccc32)cc1 [CBK003736C],41.1638%,–
Cc1cc2cn([C@H]3C[C@@H](O)[C@@H](CO)O3)c(=O)nc2o1 [CBK201287],128.784%,–
O=C(NC/C=C/c1cn(C2OC(CO)C(O)C2O)c(=O)[nH]c1=O)C(F)(F)F (centres unmarked) [CBK201298],79.1353%,–
O=C(NCc1cccc(OCC2CCCO2)c1)C1C2CCCCC21 (centres unmarked) [CBK281517],141.252%,–
O=C(O)C1Nc2c(Cl)cc(Cl)cc2C2C=CCC12 (centres unmarked) [CBK077855],134.838%,–
C/C(=N/OCO/N=C(\C)c1cccc([N+](=O)[O-])c1)c1cccc([N+](=O)[O-])c1 [CBK260872],121.895%,–
O=C1N[C@@H]2CCN(Cc3cnccn3)C[C@H]2C/C=C/CC2(CCOCC2)C(=O)N[C@H]1Cc1ccccc1 [CBK292189],102.766%,–
O=C(CSCc1ccccc1)Nc1ccc(S(=O)(=O)N2CCOCC2)cc1 [CBK087885],100%,–
COc1ccc(Cl)cc1NC(=O)COc1cccc2ccccc12 [CBK262995],141.541%,–
COc1ccc(Cl)cc1NC(=O)CN(c1cc([N+](=O)[O-])ccc1C)S(C)(=O)=O [CBK266394],131.434%,–
O=C(c1ccc2nccnc2c1)N1CCCc2ccccc21 [CBK200257],59.2805%,–
COc1ccc(CNC(=O)Cn2nc3c(SCc4ccc(Cl)cc4)nccn3c2=O)cc1 [CBK300541],143.149%,–
Cc1cc2nc(-c3ccc(C(=O)O)cc3)[nH]c2cc1C [CBK096054],159.448%,–
COc1ccccc1N1CCN(C(=O)NCCCN2CCCC2=O)CC1 [CBK155612],114.329%,–
C[C@H](Nc1nccnc1-c1cccc(O)c1)c1ccccc1 [CBK037180],88.5045%,–
Cc1nnc(S)n(Cc2ccc(F)cc2)c1=O [CBK288502],111.702%,–
Cc1ccc(NC(=O)CSCc2nc3ccccc3[nH]2)cc1 [CBK267299],117.796%,–

Structure (SMILES),% of control remaining,% of control remaining (Bulk GFP fluorescence)
CC(=O)NCCSc1ccc(C(F)(F)F)cn1 [CBK105298],104.709%,–
O=C1c2ccc(-c3ccc4c(c3)C(=O)N(Cc3ccco3)C4=O)cc2C(=O)N1Cc1ccco1 [CBK266578],146.857%,–
O=C(O)c1ccccc1C(=O)c1ccc(Oc2ncc(C(F)(F)F)cc2Cl)cc1 [CBK161648],115.245%,–
Cc1noc(C)c1C(=O)N1CCC2(CC1)CC(=O)c1cc(Br)ccc1O2 [CBK156508],100.205%,–
O=C(O)COc1ccc(Br)cn1 [CBK026021],99.6422%,–
c1ccc2oc(CN3CCC(N4CCCCC4)CC3)cc2c1 [CBK282052],128.81%,–
C=CCN1CCC(C(=O)NC(C)c2cc(OC)ccc2OC)CC1 (centres unmarked) [CBK148762],105.998%,–
O=C(O)CCNS(=O)(=O)c1ccc2[nH]c(=O)[nH]c2c1 [CBK266906],153.008%,–
Cc1nc2c(Oc3ncccn3)cccn2c1N(C)C(=O)C1CCCCC1 [CBK147161],159.673%,–
O=S(=O)(Nc1ccc2[nH]ncc2c1)c1ccc(Br)cc1C(F)(F)F [CBK062529],114.023%,–
Cc1ccc2nc(-c3ccccc3)c(CN3CCCC3)c(O)c2c1 [CBK264736],101.885%,–
Cc1ccccc1-c1nnc(SC(C)C)n1CCN(C)CC(F)(F)F [CBK200090],100.551%,–
O=C(NCCc1c[nH]c2ccccc12)c1nn(-c2ncccn2)c2ccccc12 [CBK048496],128.675%,–
O=C(NCCCN1CCOCC1)c1ccc2nccnc2c1 [CBK268704],91.4224%,–
CC(C)c1ccc(S(=O)(=O)NCc2ccc(F)c(F)c2F)cc1 [CBK044717],83.7921%,–
CCCCc1cc(=O)[nH]c(N2CCOCC2)n1 [CBK003851],92.2984%,–
O=C(NCC(c1ccco1)N1CCCC1)C1CCCCC1 (centres unmarked) [CBK304560],159.262%,–
O=C(CSc1nnc(-c2cccnc2)s1)Nc1ccc([N+](=O)[O-])cc1 [CBK268777],114.47%,–
C#CCNC(=O)C1CCCN(c2nc3ccccc3n2CC)C1 (centres unmarked) [CBK282433],99.4988%,–
Cc1nn(C)c(C)c1S(=O)(=O)n1ccn(-c2ccc(N(C)C)cc2)c1=O [CBK106610],100.114%,–
COc1ccc(-c2cc(C(=O)Nc3nc4ccccc4[nH]3)cnc2-c2ccc(F)cc2)cn1 [CBK036617],94.8178%,–
CC1CN(c2cc(CNCc3cnn4ccccc34)ccn2)CCO1 (centres unmarked) [CBK304018],112.808%,–
OC(COc1c(Br)cccc1Br)CN1CCCCC1 (centres unmarked) [CBK003077T],136.421%,–
CCN(CC)C(=O)C1CCCN(C(=O)NC(c2ccccc2)c2ccccc2)C1 (centres unmarked) [CBK156125],120.966%,–
CCC(=O)Oc1ccc(/N=C2/NC(C)(C)O2)cc1 [CBK010922],156.19%,–
Cc1n[nH]c(C)c1C1COCCN1C(=O)c1cccc(F)c1 (centres unmarked) [CBK305105],132.704%,–

# Part of the list above, tab-delimited.
Structure (SMILES)	% of control remaining	% of control remaining (Bulk GFP fluorescence)
O=C(NCc1cccc(OCC2CCCO2)c1)C1C2CCCCC21 (centres unmarked) [CBK281517]	141.252%	–
Cc1cc2nc(-c3ccc(C(=O)O)cc3)[nH]c2cc1C [CBK096054]	159.448%	–
Cc1nc2c(Oc3ncccn3)cccn2c1N(C)C(=O)C1CCCCC1 [CBK147161]	159.673%	–
COc1ccc(-c2cc(C(=O)Nc3nc4ccccc4[nH]3)cnc2-c2ccc(F)cc2)cn1 [CBK036617]	94.8178%	–
OC(COc1c(Br)cccc1Br)CN1CCCCC1 (centres unmarked) [CBK003077T]	136.421%	–
